In PubChem BioAssay (EPA / NIEHS):
The shares of active, inactive and inconclusive entries below differ from those in the screen. Potencies of inconclusive entries are doubtful fits and often do not repeat. Active and inactive are the calls of the source. How the source made its calls: active means hit-call score of the fitted dose curve at least 0.9, where 1 is the maximum; inconclusive means response in the unintended direction; inactive means score below 0.9.

Assay: STM_H9_NormalizedViability: Cytotoxicity Assessment at 120 hours in the Stemina devTOX quickPredict H9 human embryonic stem cell (hESC)-based Assay (AID 2283784)
Summary of the method: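 Here, H9 cells received test compound with daily medium renewal. Each plate included methotrexate references (1uM, 5 nM), 0.1% DMSO and media blanks; CellTiter-Fluor RFU was normalized to DMSO.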

Row | SMILES | outcome | AC50
1 | Oc1cccc2ccccc12 | inactive | –
2 | Cc1cc(C2(c3cc(C)c(O)cc3C)OS(=O)(=O)c3ccccc32)c(C)cc1O | – | inconclusive: 5.52 µM
3 | Oc1ccc(Cc2ccccc2O)cc1 | – | inconclusive: 0.00063 µM
4 | CCCCN1C(=O)[C@@H]([C@H](O)C2CCCCC2)NC(=O)C12CCN(Cc1ccc(Oc3ccc(C(=O)O)cc3)cc1)CC2 | – | inconclusive: 5 µM
5 | O=C(O)c1cccnc1 | inactive | –
6 | Nc1ccccc1N | – | active: 2.01 µM
7 | CCCC[C@H]1CN(CC2CCOCC2)C(=O)OC12CCN(C1(C)CCN(C(=O)c3c(C)ncnc3C)CC1)CC2 | – | inconclusive: 9 µM
8 | NC(=O)NO | – | active: 341 µM
9 | c1ccc(OCCOc2ccccc2)cc1 | – | inconclusive: 50 µM
10 | Cc1oc(-c2ccccc2)nc1CCOc1cccc2c1ccn2CCC(=O)O | inactive | –
11 | C=CC(C)(O)CCC=C(C)C (stereo unspecified) | – | inconclusive: 50 µM
12 | CCc1cc(C2=C(C(=O)O)N(c3ccccc3C(F)(F)F)S(=O)(=O)c3ccccc32)cc2c1OCO2 | – | inconclusive: 5 µM
13 | O=C1CCCCCCCCCCCC(=O)OCCO1 | – | inconclusive: 0.00651 µM
14 | CC(=O)C1=C(C)[C@@H]2C[C@@]3(C1)[C@H](C)CC[C@H]3C2(C)C | – | inconclusive: 9.92 µM
15 | O=C(OCCOCCOC(=O)c1ccccc1)c1ccccc1 | – | inconclusive: 1.39 µM
16 | C#CCOC(=O)[C@@H](C)Oc1ccc(Oc2ncc(Cl)cc2F)cc1 | – | active: 76 µM
17 | CN(C)C=O | – | inconclusive: 17.1 µM
18 | O=C1CCC(N2C(=O)c3ccccc3C2=O)C(=O)N1 (stereo unspecified) | – | inconclusive: 0.108 µM
19 | CCCCN(CCO)CCO | – | inconclusive: 0.468 µM
20 | CC1=CC(=O)c2ccccc2C1=O | inactive | –
21 | CCN(CC)CCOC(=O)c1ccc(N)cc1 | – | inconclusive: 8.55 µM

Ordered by SMILES length (high to low): part of the list above.
Row | SMILES | outcome | AC50
7 | CCCC[C@H]1CN(CC2CCOCC2)C(=O)OC12CCN(C1(C)CCN(C(=O)c3c(C)ncnc3C)CC1)CC2 | – | inconclusive: 9 µM
13 | O=C1CCCCCCCCCCCC(=O)OCCO1 | – | inconclusive: 0.00651 µM
6 | Nc1ccccc1N | – | active: 2.01 µM
